Source: the supplement of paper PMC8047044
“And” between values parts separate entries of the source, which are not always exact repeats. Equal entries are not always repeated. Structures can show the parent of a compound that is named as a salt. The list shows a part of the results. Repeats are few or missing, and single values can be far off.

test system: Neuro-2a; assay: neurite formation score, plate-normalized to DMSO control mean 5.04 (score (0-8 scale)); higher = more or longer neurites; settings: 10 µM

SMILES | neurite formation score
Cc1[nH]nc2ccc(-c3cncc(OC[C@@H](N)Cc4ccccc4)c3)cc12 | 3.76
COCCOc1ccc2c(c1)ncn2-c1ccc2cccc(N3CCC(N)CC3)c2n1 | 5.86
CN1CCN(CCOc2cc(OC3CCOCC3)c3c(Nc4c(Cl)ccc5c4OCO5)ncnc3c2)CC1 [Saracatinib (AZD0530)] | 2.21
CN1CCN(c2ccc(Nc3cc(-c4cccc(-n5ccc6cc(C7CC7)cc(F)c6c5=O)c4CO)cn(C)c3=O)nc2)CC1 | 2.09
NC1(Cc2ccc(Cl)cc2)CCN(c2ncnc3[nH]ccc23)CC1 | 6.76
CCc1ccc(/C=C2/SC(=S)NC2=O)cc1 | 4.88
Cc1cnc(-c2cnc(NCCNc3ccc(C#N)cn3)nc2-c2ccc(Cl)cc2Cl)[nH]1 | 3.43 and 4.21
CC(=O)Nc1cccc(-n2c(=O)n(C3CC3)c(=O)c3c(Nc4ccc(I)cc4F)n(C)c(=O)c(C)c32)c1 | 2.21
C=CC(=O)Nc1cccc(Nc2nc(Nc3ccc(N4CCN(C(C)=O)CC4)cc3OC)ncc2C(F)(F)F)c1 | 0.543
Cn1cc(C2=C(c3cn(CCCSC(=N)N)c4ccccc34)C(=O)NC2=O)c2ccccc21 [Ro 31-8220 Mesylate] | 0.189
COc1cc2nccc(Oc3ccc(NC(=O)C4(C(=O)Nc5ccc(F)cc5)CC4)cc3)c2cc1OC | 1.21
CC(C)(C)c1nc2c3cc[nH]c(=O)c3c3cc(F)ccc3c2[nH]1 [Pyridone 6] | 4.08
CCCCCCCCCCCCc1ccc(S(=O)(=O)Nc2nncs2)cc1 | 1.52
Cc1c(CN2CCN(C(=O)[C@H](C)O)CC2)sc2c(N3CCOCC3)nc(-c3cnc(N)nc3)nc12 | 2.86
Cc1ccc(NC(=O)c2cccc(C(C)(C)C#N)c2)cc1Nc1ccc2ncn(C)c(=O)c2c1 | 1.85
COc1cc(Nc2ncc(F)c(Nc3ccc4c(n3)NC(=O)C(C)(C)O4)n2)cc(OC)c1OC | 6.43
O=C(CCCCCCC(=O)Nc1ccc(I)cc1)NO [4-iodo-SAHA] | 5.19
CC(C)(C)c1nc(-c2cccc(NS(=O)(=O)c3c(F)cccc3F)c2F)c(-c2ccnc(N)n2)s1 | 4.08 and 3.43
COc1cc2ncnc(Sc3nnc(C)s3)c2cc1OC | 1.09
CC(C)NC[C@@H](C(=O)N1CCN(c2ncnc3c2[C@H](C)C[C@H]3O)CC1)c1ccc(Cl)cc1 | 5.54

As a short view, 2 of the compounds above.
SMILES | neurite formation score
CCc1ccc(/C=C2/SC(=S)NC2=O)cc1 | 4.88
Cc1cnc(-c2cnc(NCCNc3ccc(C#N)cn3)nc2-c2ccc(Cl)cc2Cl)[nH]1 | 3.43 and 4.21

More results.

SMILES | neurite formation score
FC(F)(F)c1ccc(CNc2ccc(Cc3c[nH]c4ncc(Cl)cc34)cn2)cn1 [Pexidartinib (PLX3397)] | 3.86
Cc1ccc2c(Nc3ccc(Cl)cc3)nccc2c1Nc1ncccc1-c1ncnc2nc[nH]c12 [B-Raf inhibitor 1] | 0.0903
Cn1c(Nc2ccc(C(F)(F)F)cc2)nc2cc(Oc3ccnc(-c4ncc(C(F)(F)F)[nH]4)c3)ccc21 | 4.85
CN(C)Cc1cccc(N=C(c2ccccc2)c2c(O)[nH]c3cc(C(N)=O)ccc23)c1 | 4.52
Cc1nc2c(-c3cnc(N)nc3)nc(N3CCOCC3)nc2n1C(C)C | 3.74
Oc1ccc(-c2nc(-c3ccc(F)cc3)c(-c3ccncc3)[nH]2)cc1 | 4.88
CCn1c(-c2nonc2N)nc2c(C#CC(C)(C)O)ncc(OC[C@H]3CCCNC3)c21 | 3.74
CNC(=O)c1ccc(-c2cnc3ncc(Cc4ccc5ncccc5c4)n3n2)cc1F | 3.76
O=C(NC1CCNCC1)c1n[nH]cc1NC(=O)c1c(Cl)cccc1Cl | 4.85
C1=N/C2=N/c3ccc(OCCN4CCCC4)c(c3)COC/C=C/COCc3cccc(c3)C(=C1)N2 [Pacritinib] | 0.76
COc1ccc(Cl)cc1NC(=O)Nc1cc(C)nc2ccccc12 | 1.54
CNC(=O)c1cccc(-c2ccc3c(N4CCOC[C@@H]4C)nc(N4CCOC[C@@H]4C)nc3n2)c1 | 4.43
O=C(COc1ccc(Cl)cc1)NC1CCC(NC(=O)COc2ccc(Cl)cc2)CC1 (stereo not drawn) [ISRIB (trans-isomer)] | 4.86
NC1(C(=O)N[C@@H](CCO)c2ccc(Cl)cc2)CCN(c2ncnc3[nH]ccc23)CC1 | 5.54
CNC(=O)c1ccccc1Nc1cc(Nc2ccc(N3CCOCC3)cc2OC)ncc1C(F)(F)F | 2.74
COc1ccc(-c2nc(N3CCOCC3)c3sc(CN(C)c4ncc(C(=O)NO)cn4)cc3n2)cn1 | 1.74
O=C(O)CCC(=O)Nc1ccc(Br)cn1 [Bikinin] | 4.52
Cc1cc([C@@H](C)Nc2ccccc2C(=O)O)c2nc(N3CCOCC3)cc(=O)n2c1 | 4.19
Oc1cccc(-c2nc(N3CCOCC3)c3oc4ncccc4c3n2)c1 | 5.21
